# Measured values from the supplement of paper PMC7024190.
# Structures can show the parent of a compound that is named as a salt. Some of the results follow. Repeats in this data set agree poorly, so a single value says little.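 A first-round screen of about ten thousand compounds sought those raising reporter output, using human embryonic kidney cells briefly transfected with a plasmid carrying a Renilla luciferase gene driven by the HSV-TK promoter.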
# System: HEK 293FT
# Assay: log relative Renilla luciferase luminescence (reporter expression vs reference, reference not stated) (log (base not stated)); higher = higher recombinant reporter expression
# Conditions: 10 µM; time after transfection 48 h
row,Compound,log
1,CC(=O)O[C@H]1C[C@H](O[C@H]2[C@@H](O)C[C@H](O[C@H]3[C@@H](O)C[C@H](O[C@H]4CC[C@@]5(C)[C@H](CC[C@@H]6[C@@H]5C[C@@H](O)[C@]5(C)[C@@H](C7=CC(=O)OC7)CC[C@]65O)C4)O[C@@H]3C)O[C@@H]2C)O[C@H](C)[C@H]1O [Alpha-Acetyldigoxin],-1.24
2,CCC(N)Cc1c[nH]c2ccccc12 (stereo not drawn) [Etryptamine],-0.00227
3,Cc1[nH]c(=O)n(C(C)(C)C)c(=O)c1Cl [Terbacil],-0.0781
4,Clc1ccc(C(OCCN2CCCCC2)c2ccccc2)cc1 (stereo not drawn) [Cloperastine Hydrochloride],-0.102
5,CCCN(CCC)c1c([N+](=O)[O-])cc(C(F)(F)F)cc1[N+](=O)[O-] [Trifluralin],-0.306
6,CN1c2ccccc2C(NCCCCCCC(=O)O)c2ccc(Cl)cc2S1(=O)=O (stereo not drawn) [Tianeptine sodium],-0.0668
7,C[C@]12CC[C@H]3[C@@H](CCC4=C[C@@H](O[C@@H]5OC[C@@H](O[C@@H]6O[C@H](CO)[C@@H](O)[C@H](O)[C@H]6O)[C@H](O)[C@H]5O)CC[C@@]43C=O)[C@@]1(O)CC[C@@H]2C1=CC(=O)OC1 [Hyrcanoside],-1.18
8,NCCc1c[nH]c2ccc(OCc3ccccc3)cc12 [5-Benzyloxytryptamine],0.0125
9,CC(C)(C)C(=O)C(Oc1ccc(Cl)cc1)n1cncn1 (stereo not drawn) [Triadimefon],-0.114
10,COc1cc2c(cc1OC)-c1c(OC)c(OC)cc3c1[C@H](C2)N(C)CC3 [Glaucine],-0.00771
11,CN1C(=O)N(C)C2C1N(C)C(=O)N2C (stereo not drawn) [Mebicar],-0.00589
12,Oc1c(Br)cc(-c2cc(Br)c(O)c(Br)c2O)c(O)c1Br [Tebrofen],0.0874
13,O=C1CN=C(c2ccccc2Cl)c2cc(Br)ccc2N1 [Fenazepam],0.104
14,COc1ccc(CN2CCNCC2)c(OC)c1OC [Trimetazidine Dihydrochloride],-0.301
15,O=C1CN=C(c2ccccc2)c2cc(Cl)ccc2N1 [Nordazepam],0.0735
16,C[C@]12CC[C@H]3[C@@H](CCC4=CC(=O)CC[C@@H]43)[C@@H]1CCC2=O [Norandrostenedione-19],0.0539
17,CCOC(=O)c1cncn1[C@H](C)c1ccccc1 [Etomidate; D-isomer],-0.0545
18,c1coc(-c2nc3ccccc3[nH]2)c1 [Fuberidazole],0.0597
19,CC(C)OC(=O)C(O)(c1ccc(Br)cc1)c1ccc(Br)cc1 [Bromopropylate],-0.0682

# Grouped by structure, those above containing an aryl methoxy group
row,Compound,log
10,COc1cc2c(cc1OC)-c1c(OC)c(OC)cc3c1[C@H](C2)N(C)CC3 [Glaucine],-0.00771
14,COc1ccc(CN2CCNCC2)c(OC)c1OC [Trimetazidine Dihydrochloride],-0.301

# Carrying on:

row,Compound,log
1,OC(c1cccs1)(c1cccs1)C1CN2CCC1CC2 (stereo not drawn) [Quiditene],-0.195
2,C[C@]12CC[C@H](O)C[C@@]1(O)CC[C@@H]1[C@@H]2CC[C@]2(C)[C@@H](C3=CC(=O)OC3)CC[C@]12O [Periplogenin],-1.1
3,C[C@H]1CCC[C@H](O)CCCCCc2cc(O)cc(O)c2C(=O)O1 [Zeranol],-0.183
4,CC(N)Cc1c[nH]c2ccccc12 (stereo not drawn) [Alpha-methyltryptamine],0.0205
5,O=[N+]([O-])O[C@H]1CO[C@H]2[C@@H]1OC[C@H]2O [Isosorbide-2-mononitrate],0.1
6,CN(C)C(=O)Oc1cccc([N+](C)(C)C)c1 [Neostigmine Mesilate],0.223
7,COc1ccc2c(c1)[C@]13CCCC[C@@H]1[C@H](C2)N(C)CC3 [Dextromethorphan Hydrobromide],-0.88
8,Cn1c(=O)c2ncnnc2n(C)c1=O [Fervenulin],-0.398
9,c1cnc(N2CCNCC2)nc1 [Pyrimidinylpiperazine],0.0329
10,O=C1CNC(c2ccccc2Cl)c2cc(Br)ccc2N1 (stereo not drawn) [Dihydrofenazepam],-0.027
11,CC(=O)OC1CN2CCC1CC2 (stereo not drawn) [Aceclidine Salicylate],0.13
12,NC(CP(=O)(O)O)C(=O)O (stereo not drawn) [Aminophosphonopropionic acid],-0.0949
13,O=C1CN=C(c2ccccc2Cl)c2cc(Cl)ccc2N1 [Delorazepam],0.084
14,O=P1(NCCCl)OCCCN1CCCl (stereo not drawn) [Ifosfamide],-0.0257
15,OC(c1ccccc1)(c1ccccc1)C1CCNCC1 [Azacyclonol],-0.00227
16,Cc1ccc(-c2nc3ccc(C)cn3c2CC(=O)N(C)C)cc1 [Zolpidem Tartrate],-1.11
17,O=C1C[N+]([O-])=C(c2ccccc2)c2cc(Cl)ccc2N1 [Demoxepam],0.0966
18,Cc1nc2ccccc2c(=O)n1-c1ccccc1Cl [Mecloqualone],0.055
19,Nc1nsc(N)n1 [Amtizole],0.0362
